Laboratory results published in paper PMC4644952.
Where two headings read alike, the source gives them in different places. Results are given in words; binding and its absence hold for the method and conditions named. Binding seen in cells or lysates may run through a third protein. Some entries that bind do so weakly or less than the wild type. For some of these results: Tags and fused reporters may be left off the sequences shown.

Chains of the proteins cited; added tags and fusions are not shown.
UniProt Q14318: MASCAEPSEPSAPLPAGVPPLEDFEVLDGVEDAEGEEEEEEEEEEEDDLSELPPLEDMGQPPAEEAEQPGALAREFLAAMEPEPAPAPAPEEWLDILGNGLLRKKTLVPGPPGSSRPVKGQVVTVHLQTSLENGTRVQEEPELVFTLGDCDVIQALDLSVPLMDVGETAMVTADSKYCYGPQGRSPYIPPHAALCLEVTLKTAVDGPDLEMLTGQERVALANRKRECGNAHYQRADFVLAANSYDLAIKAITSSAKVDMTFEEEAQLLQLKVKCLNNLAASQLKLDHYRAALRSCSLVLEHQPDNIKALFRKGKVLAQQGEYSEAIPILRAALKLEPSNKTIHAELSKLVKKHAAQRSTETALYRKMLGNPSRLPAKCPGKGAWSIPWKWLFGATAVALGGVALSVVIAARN

How the values were obtained:
[1] = target: T1, Endogenous FKBP6 (human (endogenous in the Huh7-derived replicon cell line)) (UniProt O75344); test: co-IP; lysate of the genotype 1b Con1 replicon cell line (clone 9-13); immunoprecipitation with goat anti-FKBP6 IgG, normal goat IgG as control
T1 sequence: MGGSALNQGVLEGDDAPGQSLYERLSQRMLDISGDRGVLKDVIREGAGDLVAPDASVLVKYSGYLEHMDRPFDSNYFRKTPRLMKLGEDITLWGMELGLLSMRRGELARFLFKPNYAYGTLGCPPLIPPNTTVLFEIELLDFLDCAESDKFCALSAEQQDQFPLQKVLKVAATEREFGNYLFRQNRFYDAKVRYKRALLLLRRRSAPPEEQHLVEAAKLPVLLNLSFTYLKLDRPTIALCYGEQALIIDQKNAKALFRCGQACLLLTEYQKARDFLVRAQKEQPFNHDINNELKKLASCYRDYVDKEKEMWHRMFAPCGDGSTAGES

FLAG-tagged FKBP8 = FLAG-tagged FKBP8 (UniProt Q14318); test: co-IP; FLAG- and HA-tagged FKBP6 or FKBP8 co-expressed in 293T cells; 1% Nonidet P-40 lysis buffer (50 mM HEPES pH 7.4, 150 mM NaCl, 0.1 mM EDTA); half of the lysate mixed with DMSO, half with 80 μM DM-CHX; anti-FLAG or anti-HA immunoprecipitation; DM-CHX impaired the complexes
FLAG-tagged FKBP6 [2] = target: T2, FLAG-tagged FKBP6 (UniProt O75344); test: as above
T2 sequence: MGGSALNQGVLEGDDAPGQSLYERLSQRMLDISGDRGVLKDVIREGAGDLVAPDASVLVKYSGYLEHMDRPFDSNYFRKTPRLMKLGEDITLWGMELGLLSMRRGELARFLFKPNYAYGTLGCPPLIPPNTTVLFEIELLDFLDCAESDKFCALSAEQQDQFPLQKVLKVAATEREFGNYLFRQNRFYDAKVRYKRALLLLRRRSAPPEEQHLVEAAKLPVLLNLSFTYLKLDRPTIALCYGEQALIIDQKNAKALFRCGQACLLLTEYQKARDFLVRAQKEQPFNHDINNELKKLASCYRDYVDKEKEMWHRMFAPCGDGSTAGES

[3] = target: FLAG-tagged NS5A (Con1 strain) (hepatitis C virus genotype 1b, strain Con1) (UniProt Q9WMX2); test: co-IP; FLAG- and HA-tagged proteins co-expressed in 293T cells, lysed 48 h post-transfection; immunoprecipitation with anti-FLAG or anti-HA antibody, Western blotting
FLAG-tagged FKBP6 [4] = target: T2, FLAG-tagged FKBP6; test: as above
HA-tagged FKBP6 [5] = target: T3, HA-tagged FKBP6 (UniProt O75344); test: as above
T3 sequence: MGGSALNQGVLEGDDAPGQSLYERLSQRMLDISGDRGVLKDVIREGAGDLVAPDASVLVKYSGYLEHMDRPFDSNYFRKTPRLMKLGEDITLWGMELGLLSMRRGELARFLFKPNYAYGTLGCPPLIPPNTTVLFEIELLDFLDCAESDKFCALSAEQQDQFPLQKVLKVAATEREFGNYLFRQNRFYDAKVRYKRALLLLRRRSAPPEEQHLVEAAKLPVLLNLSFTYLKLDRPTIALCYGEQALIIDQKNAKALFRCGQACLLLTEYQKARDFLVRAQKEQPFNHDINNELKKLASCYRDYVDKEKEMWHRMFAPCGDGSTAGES

HA-tagged FKBP8 [6] = target: HA-tagged FKBP8 (UniProt Q14318); test: as above
[7] = target: FLAG-tagged NS5A (Con1 strain) (hepatitis C virus genotype 1b, strain Con1) (UniProt Q9WMX2); test: as above; remark: listed apart in the source
FLAG-tagged FKBP6 [8] = target: T2, FLAG-tagged FKBP6; test: as above; remark: listed apart in the source
HA-tagged FKBP5 = target: T4, HA-tagged FKBP5 (UniProt Q13451); test: as above
T4 sequence: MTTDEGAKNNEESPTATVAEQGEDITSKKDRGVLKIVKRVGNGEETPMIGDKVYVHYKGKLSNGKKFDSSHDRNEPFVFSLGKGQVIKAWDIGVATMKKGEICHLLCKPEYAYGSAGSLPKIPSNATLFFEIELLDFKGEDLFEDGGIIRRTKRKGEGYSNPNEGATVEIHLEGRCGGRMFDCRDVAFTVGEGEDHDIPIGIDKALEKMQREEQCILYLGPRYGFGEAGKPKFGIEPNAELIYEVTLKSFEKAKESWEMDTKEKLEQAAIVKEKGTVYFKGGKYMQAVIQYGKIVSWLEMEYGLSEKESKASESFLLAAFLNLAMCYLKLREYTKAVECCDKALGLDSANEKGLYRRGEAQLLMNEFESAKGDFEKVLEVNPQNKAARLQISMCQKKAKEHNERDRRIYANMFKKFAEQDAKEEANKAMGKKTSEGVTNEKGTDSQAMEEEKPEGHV

HA-tagged FKBP6 [9] = target: T3, HA-tagged FKBP6; test: as above; remark: listed apart in the source
HA-tagged FKBP8 [10] = target: HA-tagged FKBP8 (UniProt Q14318); test: as above; remark: listed apart in the source

NS5A expressed from the Con1 subgenomic replicon (from UniProt Q9WMX2 1973-2419)
binding [1]: binds

HA-tagged FKBP8 (from UniProt Q14318 1-412)
binding (FLAG-tagged FKBP8): binds
binding (FLAG-tagged FKBP6 [2]): binds
binding [3]: binds
binding (FLAG-tagged FKBP6 [4]): binds

FLAG-tagged NS5A (Con1 strain) (from UniProt Q9WMX2 1973-2419)
binding (HA-tagged FKBP6 [5]): binds
binding (HA-tagged FKBP8 [6]): binds

B1: HA-tagged FKBP5 (protein, UniProt Q13451 1-457)
chain: MTTDEGAKNNEESPTATVAEQGEDITSKKDRGVLKIVKRVGNGEETPMIGDKVYVHYKGKLSNGKKFDSSHDRNEPFVFSLGKGQVIKAWDIGVATMKKGEICHLLCKPEYAYGSAGSLPKIPSNATLFFEIELLDFKGEDLFEDGGIIRRTKRKGEGYSNPNEGATVEIHLEGRCGGRMFDCRDVAFTVGEGEDHDIPIGIDKALEKMQREEQCILYLGPRYGFGEAGKPKFGIEPNAELIYEVTLKSFEKAKESWEMDTKEKLEQAAIVKEKGTVYFKGGKYMQAVIQYGKIVSWLEMEYGLSEKESKASESFLLAAFLNLAMCYLKLREYTKAVECCDKALGLDSANEKGLYRRGEAQLLMNEFESAKGDFEKVLEVNPQNKAARLQISMCQKKAKEHNERDRRIYANMFKKFAEQDAKEEANKAMGKKTSEGVTNEKGTDSQAMEEEKPEGHV
binding [7]: no binding
binding (FLAG-tagged FKBP6 [8]): no binding

B2: HA-tagged FKBP6 (protein, UniProt O75344 1-327)
chain: MGGSALNQGVLEGDDAPGQSLYERLSQRMLDISGDRGVLKDVIREGAGDLVAPDASVLVKYSGYLEHMDRPFDSNYFRKTPRLMKLGEDITLWGMELGLLSMRRGELARFLFKPNYAYGTLGCPPLIPPNTTVLFEIELLDFLDCAESDKFCALSAEQQDQFPLQKVLKVAATEREFGNYLFRQNRFYDAKVRYKRALLLLRRRSAPPEEQHLVEAAKLPVLLNLSFTYLKLDRPTIALCYGEQALIIDQKNAKALFRCGQACLLLTEYQKARDFLVRAQKEQPFNHDINNELKKLASCYRDYVDKEKEMWHRMFAPCGDGSTAGES
binding (FLAG-tagged FKBP6 [2]): binds
binding [7]: binds
binding (FLAG-tagged FKBP6 [8]): binds

B3: FLAG-tagged FKBP6 (protein, UniProt O75344 1-327)
chain: MGGSALNQGVLEGDDAPGQSLYERLSQRMLDISGDRGVLKDVIREGAGDLVAPDASVLVKYSGYLEHMDRPFDSNYFRKTPRLMKLGEDITLWGMELGLLSMRRGELARFLFKPNYAYGTLGCPPLIPPNTTVLFEIELLDFLDCAESDKFCALSAEQQDQFPLQKVLKVAATEREFGNYLFRQNRFYDAKVRYKRALLLLRRRSAPPEEQHLVEAAKLPVLLNLSFTYLKLDRPTIALCYGEQALIIDQKNAKALFRCGQACLLLTEYQKARDFLVRAQKEQPFNHDINNELKKLASCYRDYVDKEKEMWHRMFAPCGDGSTAGES
binding (HA-tagged FKBP5): no binding
binding (HA-tagged FKBP6 [9]): binds
binding (HA-tagged FKBP8 [10]): binds

B4: HA-tagged FKBP4 (protein, UniProt Q02790 1-459)
chain: MTAEEMKATESGAQSAPLPMEGVDISPKQDEGVLKVIKREGTGTEMPMIGDRVFVHYTGWLLDGTKFDSSLDRKDKFSFDLGKGEVIKAWDIAIATMKVGEVCHITCKPEYAYGSAGSPPKIPPNATLVFEVELFEFKGEDLTEEEDGGIIRRIQTRGEGYAKPNEGAIVEVALEGYYKDKLFDQRELRFEIGEGENLDLPYGLERAIQRMEKGEHSIVYLKPSYAFGSVGKEKFQIPPNAELKYELHLKSFEKAKESWEMNSEEKLEQSTIVKERGTVYFKEGKYKQALLQYKKIVSWLEYESSFSNEEAQKAQALRLASHLNLAMCHLKLQAFSAAIESCNKALELDSNNEKGLFRRGEAHLAVNDFELARADFQKVLQLYPNNKAAKTQLAVCQQRIRRQLAREKKLYANMFERLAEEENKAKAEASSGDHPTDTEMKEEQKSNTAGSQSQVETEA
binding [7]: no binding
